Measurements taken from PMC13391367.
No constants are given. Whether binding was seen depends on the method and setting. In cells and extracts the contact can be indirect. Some results given as binding are weak or reduced against the parent protein; the word gives no strength.

Protein sequences, listed by entry. Tags and fused reporters are not part of them.
UniProt Q5JVF3: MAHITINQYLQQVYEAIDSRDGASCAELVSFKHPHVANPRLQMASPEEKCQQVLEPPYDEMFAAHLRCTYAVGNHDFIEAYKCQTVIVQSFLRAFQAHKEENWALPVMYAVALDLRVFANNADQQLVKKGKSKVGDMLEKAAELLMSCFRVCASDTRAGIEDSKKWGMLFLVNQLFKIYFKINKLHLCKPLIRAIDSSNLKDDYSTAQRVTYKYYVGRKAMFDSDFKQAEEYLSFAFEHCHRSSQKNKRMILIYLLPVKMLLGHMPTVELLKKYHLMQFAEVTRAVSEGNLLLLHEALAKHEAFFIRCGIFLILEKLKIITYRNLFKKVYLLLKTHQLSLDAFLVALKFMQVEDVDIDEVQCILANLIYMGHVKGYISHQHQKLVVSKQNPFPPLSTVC

Molecular target: PCID2–3×Flag (endogenously tagged) (human (endogenous in HeLa)) (UniProt Q5JVF3)
Assay: co-IP; low-stringency anti-Flag IP from extracts of endogenously 3×Flag-tagged HeLa lines, western blot with GANP-, ZFC3H1-, MTR4-, EXOSC10-, PCID2- and Flag-specific antibodies

binding: binds
B1: EXOSC10 (endogenous exosome component) (protein, UniProt Q01780 1-885)
chain: MAPPSTREPRVLSATSATKSDGEMVLPGFPDADSFVKFALGSVVAVTKASGGLPQFGDEYDFYRSFPGFQAFCETQGDRLLQCMSRVMQYHGCRSNIKDRSKVTELEDKFDLLVDANDVILERVGILLDEASGVNKNQQPVLPAGLQVPKTVVSSWNRKAAEYGKKAKSETFRLLHAKNIIRPQLKFREKIDNSNTPFLPKIFIKPNAQKPLPQALSKERRERPQDRPEDLDVPPALADFIHQQRTQQVEQDMFAHPYQYELNHFTPADAVLQKPQPQLYRPIEETPCHFISSLDELVELNEKLLNCQEFAVDLEHHSYRSFLGLTCLMQISTRTEDFIIDTLELRSDMYILNESLTDPAIVKVFHGADSDIEWLQKDFGLYVVNMFDTHQAARLLNLGRHSLDHLLKLYCNVDSNKQYQLADWRIRPLPEEMLSYARDDTHYLLYIYDKMRLEMWERGNGQPVQLQVVWQRSRDICLKKFIKPIFTDESYLELYRKQKKHLNTQQLTAFQLLFAWRDKTARREDESYGYVLPNHMMLKIAEELPKEPQGIIACCNPVPPLVRQQINEMHLLIQQAREMPLLKSEVAAGVKKSGPLPSAERLENVLFGPHDCSHAPPDGYPIIPTSGSVPVQKQASLFPDEKEDNLLGTTCLIATAVITLFNEPSAEDSKKGPLTVAQKKAQNIMESFENPFRMFLPSLGHRAPVSQAAKFDPSTKIYEISNRWKLAQVQVQKDSKEAVKKKAAEQTAAREQAKEACKAAAEQAISVRQQVVLENAAKKRERATSDPRTTEQKQEKKRLKISKKPKDPEPPEKEFTPYDYSQSDFKAFAGNSKSKVSSQFDPNKQTPSGKKCIAAKKIKQSVGNKSMSFPTGKSDRGFRYNWPQR
